{"source": "PubChem BioAssay AID1688", "about": "(National Center for Advancing Translational Sciences (NCATS), 2009)", "note": "Screen size: about 220,000 compounds; about 2,400 (1.1%) were called active. The inconclusive results got no clear call from the source; some entries with a clear call stand among them for comparison. Calls follow the shape of the dose curve; as a rule, active = well fitted inhibition curve with a large enough effect; inconclusive = small, poorly fitted or top-dose-only effect, or effect the other way; inactive = no such curve, though single readings can be large or run the other way. A potency beside an inconclusive call is a rough fit, not a confirmed value. % is scaled to controls: 0 for no effect and ±100 for the full control effect; potency is read from the fitted curve at half-maximal effect."}
{"experiment": "qHTS Multiplex Assay to Identify Dual Action Probes in a Cell Model of Huntington: Aggregate Formation (GFP); also: nearly all actives have a fitted effect of over 60% in size", "conditions": "PC12 HttQ103-GFP aggregates, Acumen cytometry, 40 h; activity change, negative = inhibition: at 46.1 µM (top of the series) unless noted", "outline": "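Steps: seed 1500 PC12 HTTQ103-GFP cells/well; add tebufenozide, 100 nM final; add compound titration; add ATPLite reagent; quantify GFP aggregates by laser scanning cytometry.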"}
{"smiles": "CC(C)N(C(=S)Nc1cccnc1)c1ccccc1", "activity change, negative = inhibition": "inactive: -12.4% [at 9.22 µM]"}
{"smiles": "Cc1csc(NC(=O)c2ccco2)n1", "Potency": "inconclusive: 0.562 µM [inhibitor, full curve, poor fit]"}
{"smiles": "CCN(CC)S(=O)(=O)c1ccc(N(C)Cc2ccc(C(F)(F)F)cc2)nc1", "Potency": "active: 10 µM"}
{"smiles": "COc1ccc(NC(=O)N(CCC(C)C)C(C)c2ccccn2)c(OC)c1", "note": "(stereo not given)", "Potency": "inactive"}
{"smiles": "Cc1ccc(C2(C(F)(F)F)NC(=O)N3C(=C2C#N)Nc2ccccc23)cc1", "note": "(stereo not given)", "Potency": "inconclusive: 0.562 µM [inhibitor, full curve, poor fit]"}
{"smiles": "Cc1ccc(NC(=O)CC2SC3=NCCN3C2=O)cc1", "note": "(stereo not given)", "Potency": "inactive"}
{"smiles": "CCN(CC)S(=O)(=O)c1ccc(N2CCOCC2)c(NC(=O)c2ccc(NC(C)=O)cc2)c1", "activity change, negative = inhibition": "inactive: 2.16% [at 9.22 µM]"}
{"smiles": "COc1ccc(CCNC(=O)CN(c2ccccc2)S(C)(=O)=O)cc1OC", "Potency": "inconclusive: 35.5 µM [activator, single point]"}
{"smiles": "O=C(NC(=S)Nc1ccc(Cl)cn1)C(c1ccccc1)c1ccccc1", "Potency": "inconclusive: 17.8 µM [inhibitor, single point]"}
{"smiles": "Cc1cc(C)c2nc(NNC(=O)c3cc(-c4cccs4)nc4ccccc34)sc2c1", "Potency": "inconclusive: 2 µM [inhibitor, full curve, poor fit]"}
{"smiles": "NC(=O)COC(=O)CN1C(=O)C2CCCCC2C1=O", "note": "(stereo not given)", "Potency": "inconclusive: 3.55 µM [inhibitor, single point]"}
{"smiles": "CCOC(=O)Cc1csc(NC(=O)c2cc(C)cc(C)c2)n1", "Potency": "inconclusive: 0.562 µM [activator, full curve, poor fit]"}
{"smiles": "N#C/C(=C/c1ccc(CNC(=O)C(=O)Nc2cc(Cl)cc(Cl)c2)o1)C(=O)NCc1cccnc1", "Potency": "inconclusive: 1.41 µM [inhibitor, partial curve]"}
{"smiles": "CCCOc1ccc(C(=O)C(CN2CCOCC2)c2ccccc2)cc1", "note": "(stereo not given)", "activity change, negative = inhibition": "inactive: 5.85% [at 1.84 µM]"}
{"smiles": "COc1ccc(-c2cc(C(F)F)n3ncc(C(=O)Nc4cccc(S(=O)(=O)N5CCOCC5)c4)c3n2)cc1", "Potency": "inconclusive: 0.891 µM [activator, full curve]"}
{"smiles": "COc1ccccc1N(C(=O)c1ccncc1)c1nc(-c2ccc([N+](=O)[O-])cc2)cs1", "Potency": "inactive"}
{"smiles": "COc1ccccc1NC(=O)CN1CCC(n2nnc3cc(F)ccc32)CC1", "Potency": "inactive"}
{"smiles": "O=C(Nc1nnc(-c2ccc(F)cc2)s1)C1CCN(S(=O)(=O)c2ccc(Cl)cc2)CC1", "Potency": "inactive"}
{"smiles": "CCOC(=O)c1ccc(NC(=S)NNC(=O)C2(C)CC2(Cl)Cl)cc1", "note": "(stereo not given)", "Potency": "inconclusive: 25.1 µM [inhibitor, single point]"}
{"smiles": "Clc1ccccc1Cn1nnc2c(Nc3ccccc3)ncnc21", "Potency": "inconclusive: 35.5 µM [inhibitor, single point]"}
{"smiles": "CCn1c(Cc2ccccc2)nnc1SCC(=O)Nc1cc(C)on1", "Potency": "inactive"}
{"smiles": "NC1=NC(c2ccc(Cl)cc2)C(C(=O)c2ccccc2)N1", "note": "(stereo not given)", "Potency": "inconclusive: 2.82 µM [inhibitor, single point]"}
{"smiles": "CCNC(=O)CC1C(=O)N(c2ccc(F)cc2)C(=O)N1CCc1ccc(OC)cc1", "note": "(stereo not given)", "Potency": "inconclusive: 10 µM [activator, partial curve]"}
{"smiles": "CC(=O)C1=C(C)NC(SCC(=O)c2ccc(Cl)cc2)=C(C#N)C1CC(C)C", "note": "(stereo not given)", "Potency": "inconclusive: 35.5 µM [activator, single point]"}
{"smiles": "O=C(NC(=S)N1CCCc2ccccc21)c1ccc(Br)cc1", "Potency": "inconclusive: 35.5 µM [inhibitor, single point]"}
{"smiles": "Cc1ccc(-c2nc(C(Cl)Cl)c3ccccc3n2)cc1", "Potency": "active: 0.891 µM"}
{"smiles": "COc1ccc(Cl)cc1NC(=S)N(CCCN1CCOCC1)Cc1cn(C)c2ccccc12", "Potency": "inconclusive: 28.2 µM [inhibitor, single point]"}
{"smiles": "CC(=O)N(C)C1=C(N2CCOCC2)C(=O)c2ccccc2C1=O", "Potency": "active: 25.1 µM"}
{"smiles": "CCOC(=O)c1c(C)c(C(=O)N2CCCCCC2)c(C)n1C", "Potency": "inactive"}
{"smiles": "CCCCOc1ccccc1C1C(C(N)=O)=C(C)Nc2nnnn21", "note": "(stereo not given)", "Potency": "inconclusive: 3.55 µM [inhibitor, partial curve]"}
{"smiles": "CCOc1ccc(C(=O)N/N=C(/C)C2C(=O)c3ccccc3C2=O)cc1", "Potency": "active: 10 µM"}
{"smiles": "Cc1ccc(NC2c3ccccc3C(=O)N2CCN2CCOCC2)cc1", "note": "(stereo not given)", "Potency": "inactive"}
{"smiles": "Cc1ccsc1/C=N/NC(=O)c1ccc([N+](=O)[O-])cc1", "Potency": "inactive"}
{"smiles": "Cc1ccc(C)c(S(=O)(=O)Nc2ccc3sc(C)nc3c2)c1", "Potency": "inconclusive: 35.5 µM [inhibitor, single point]"}
{"smiles": "Cc1ccc(C(=O)O)cc1NC(=O)CCc1ccccc1", "Potency": "inactive"}
{"smiles": "COc1ccc(NC(=O)c2sccc2SCc2cccc(C(F)(F)F)c2)cc1", "Potency": "inconclusive: 20 µM [inhibitor, single point]"}
{"smiles": "C=CCSc1nc2c(c(=O)n(C)c(=O)n2C)n1CC", "Potency": "inconclusive: 22.4 µM [inhibitor, partial curve]"}
{"smiles": "CCOC(=O)c1cc(NC(=O)C2C3CCC(O3)C2C(=O)O)cc(C(=O)OCC)c1", "note": "(stereo not given)", "Potency": "inconclusive: 5.62 µM [inhibitor, single point]"}
{"smiles": "O=C(N/N=C/c1ccccc1O)c1ccncc1", "Potency": "inconclusive: 14.1 µM [inhibitor, partial curve, poor fit]"}
{"smiles": "Cn1cccc1-c1cc(C(=O)N/N=C/c2cccc(O)c2)[nH]n1", "Potency": "inconclusive: 2.82 µM [inhibitor, single point]"}
{"smiles": "Cc1cccc2[nH]c3c(N4CCC5(CC4)OCCO5)ncnc3c12", "Potency": "active: 22.4 µM"}
{"smiles": "CC(C)(C)N(NC(=O)Nc1ccc(Cl)c(Cl)c1)C(=O)c1ccccc1", "Potency": "inconclusive: 17.8 µM [inhibitor, partial curve]"}
{"smiles": "S=C(Nc1ccc(Cl)cc1)N1CCN(C2CCCCC2)CC1", "Potency": "inconclusive: 35.5 µM [inhibitor, single point]"}
{"smiles": "CNS(=O)(=O)c1ccc(Oc2ccc(S(=O)(=O)NC)cc2)cc1", "Potency": "inconclusive: 12.6 µM [inhibitor, partial curve]"}
{"smiles": "Cc1ccc(S(=O)(=O)Nc2cc(C)c(O)c(S(=O)(=O)c3ccc(C)cc3)c2)cc1", "Potency": "inconclusive: 25.1 µM [inhibitor, single point]"}
{"smiles": "CCC1(C)Cc2c(sc(NC(=O)CCC(=O)O)c2C#N)CO1", "note": "(stereo not given)", "Potency": "inactive"}
{"smiles": "COc1c(C)cc(Br)cc1C(=O)Nc1ccc(Cc2ccncc2)cc1", "Potency": "inconclusive: 15.8 µM [inhibitor, partial curve]"}
{"smiles": "O=C(Nc1cccc(O)c1)c1noc2c1CCCCC2", "Potency": "inconclusive: 15.8 µM [inhibitor, single point]"}
{"smiles": "CC(C)(C)c1cc(=O)[nH]c(SCc2ccccc2Cl)n1", "Potency": "inactive"}
{"smiles": "COc1ccc(NC(=O)N2CCN(c3nc(-c4cccc(OC)c4)cs3)CC2)cc1", "Potency": "inconclusive: 35.5 µM [inhibitor, single point]"}
{"smiles": "CCOc1cc(C(N)=O)cc(Cl)c1OCC", "Potency": "inconclusive: 15.8 µM [inhibitor, partial curve]"}
{"smiles": "Nc1nc(NCCCN2CCOCC2)nc(Nc2ccccc2)c1[N+](=O)[O-]", "Potency": "inconclusive: 7.94 µM [activator, partial curve]"}
{"smiles": "CC1(C)C(C=C(Cl)Cl)C1C(=O)N(Cc1ccc(Cl)cc1)C1CCS(=O)(=O)C1", "note": "(stereo not given)", "Potency": "inconclusive: 35.5 µM [inhibitor, single point]"}
{"smiles": "CCOC(=O)c1sc(N)c(C(=O)Nc2ccccc2OC)c1C", "Potency": "inconclusive: 10 µM [inhibitor, single point]"}
{"smiles": "CC1=C(C)/C(=N\\OS(=O)(=O)c2ccc(C)cc2)C=CC1=O", "Potency": "inconclusive: 35.5 µM [inhibitor, single point]"}
{"smiles": "COc1ccc2nc(NC(=O)c3cnccn3)sc2c1", "Potency": "inconclusive: 10 µM [inhibitor, partial curve]"}
{"smiles": "CCC(=O)c1cc(F)c(N2CCN(C(=O)Cc3ccccc3)CC2)cc1C", "Potency": "inconclusive: 14.1 µM [inhibitor, single point]"}
{"smiles": "Cc1cc(C)c[n+](-c2nc3ccccc3nc2[N-]S(=O)(=O)c2ccc(Cl)cc2)c1", "Potency": "inconclusive: 2.82 µM [inhibitor, partial curve]"}
{"smiles": "Cc1cc(-c2ccccc2)oc(=O)c1NC(=O)c1ccccc1", "Potency": "inconclusive: 1.41 µM [activator, full curve, poor fit]"}
{"smiles": "COc1cc(/C=C/C(=O)O)cc(S(=O)(=O)N(C)CCO)c1OC", "Potency": "inconclusive: 15.8 µM [inhibitor, single point]"}
{"smiles": "COc1cc2c(cc1NC(=O)C(c1ccccc1)c1ccccc1)CCCC2", "Potency": "inconclusive: 11.2 µM [inhibitor, partial curve]"}
{"smiles": "O=C(O)c1ccc(NCCC2=CCCCC2)c([N+](=O)[O-])c1", "Potency": "inactive"}
{"smiles": "CC1=CC(=O)C=C(C)C1=NOC(=O)/C=C\\c1ccccc1", "Potency": "inconclusive: 22.4 µM [inhibitor, single point]"}
{"smiles": "Cc1nnc(N/N=C\\c2ccc(-c3cccc(C(=O)O)c3)o2)n1N", "Potency": "inconclusive: 35.5 µM [activator, single point]"}
{"smiles": "COc1ccc(Nc2oc(COc3ccccc3OC)nc2C#N)cc1", "Potency": "inconclusive: 35.5 µM [activator, single point]"}
{"smiles": "COC(=O)c1sc(Nc2ccccc2)nc1C", "Potency": "inactive"}
{"smiles": "O=C(COc1ccccc1-c1ccccc1)NCc1cccc(Cl)c1", "Potency": "inconclusive: 1.58 µM [inhibitor, partial curve]"}
{"smiles": "CCCn1c(SCC(=O)NCCc2ccccc2)nnc1C(C)C", "activity change, negative = inhibition": "inactive: 20.1% [at 9.22 µM]"}
{"smiles": "C/C(=N\\NC(=S)NC1CCCCC1)c1ccc(C#N)cc1", "Potency": "inconclusive: 3.55 µM [inhibitor, single point]"}
{"smiles": "N#C/C(=C\\N1CCN(Cc2ccc3c(c2)OCO3)CC1)c1nc2ccccc2s1", "Potency": "inconclusive: 35.5 µM [inhibitor, single point]"}
